PubChem BioAssay AID1259405 – NCATS – 2018
In all, the deposit lists about 50,000 reagents; shown is a random part of them. Over the whole deposit, about 4,000 (8%) got an active call. 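Mouse siRNA library applied to hamster cells; one well for each siRNA.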 Reagents against one gene are numbered here.

- Test: 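Mouse-designed siRNAs used to find CHO productivity engineering targets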 (primary screen)
- System: Chinese hamster CHO-K1 ovary cells with stable secreted eGFP expression
- Knock-down reagent: single siRNA against mouse genes, 0.8 pmol siRNA per well (2 µl of 400 nM stock)
- Time to read-out: 3 days
- Measured: 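Per-well intracellular GFP measured by laser scanning cytometry, plus viability from ATP luminescence, each relative to plate median of non-targeting control wells, in %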
- Direction: GFP, % of control: higher = more GFP per well, higher productivity; viability (ATP), % of control: higher = more viable cells (more ATP)
- Active means: 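a knock-down is called active if GFP reaches 120% or more of non-targeting control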

gene symbol	reagent no.	GFP, % of control	viability (ATP), % of control	call
Prl8a8 (prolactin family 8, subfamily a, member 81)	1	81	82.9	inactive
Prl8a8 (prolactin family 8, subfamily a, member 81)	2	66.9	65.7	inactive
Prl8a8 (prolactin family 8, subfamily a, member 81)	3	51.2	70.9	inactive
Myom2 (myomesin 2)	1	92.6	95.3	inactive
Myom2 (myomesin 2)	2	56.6	74.5	inactive
Myom2 (myomesin 2)	3	81	93.4	inactive
Gstcd (glutathione S-transferase, C-terminal domain containing)	1	62.1	56.4	inactive
Gstcd (glutathione S-transferase, C-terminal domain containing)	2	81.5	85.4	inactive
Gstcd (glutathione S-transferase, C-terminal domain containing)	3	81.1	68	inactive
9330175E14Rik (RIKEN cDNA 9330175E14 gene)	1	47	44.5	inactive
9330175E14Rik (RIKEN cDNA 9330175E14 gene)	2	8.41	12	inactive
9330175E14Rik (RIKEN cDNA 9330175E14 gene)	3	56.1	39.1	inactive
9330175E14Rik (RIKEN cDNA 9330175E14 gene)	4	52.2	56.9	inactive
9330175E14Rik (RIKEN cDNA 9330175E14 gene)	5	64.6	74.8	inactive
9330175E14Rik (RIKEN cDNA 9330175E14 gene)	6	64.1	81.9	inactive

The list goes on; the last 4 above are carried over.
gene symbol	reagent no.	GFP, % of control	viability (ATP), % of control	call
9330175E14Rik (RIKEN cDNA 9330175E14 gene)	3	56.1	39.1	inactive
9330175E14Rik (RIKEN cDNA 9330175E14 gene)	4	52.2	56.9	inactive
9330175E14Rik (RIKEN cDNA 9330175E14 gene)	5	64.6	74.8	inactive
9330175E14Rik (RIKEN cDNA 9330175E14 gene)	6	64.1	81.9	inactive
Tymp (thymidine phosphorylase)	1	109	83.8	inactive
Tymp (thymidine phosphorylase)	2	11	17.6	inactive
Tymp (thymidine phosphorylase)	3	96.6	94.9	inactive
Slco4a1	1	57.9	52.8	inactive
Slco4a1	2	114	87.9	inactive
Slco4a1	3	80	66.1	inactive
Mtnap1 (mitochondrial nucleoid associated protein 1)	1	82.8	84.4	inactive
Mtnap1 (mitochondrial nucleoid associated protein 1)	2	102	69.4	inactive
Mtnap1 (mitochondrial nucleoid associated protein 1)	3	92	98.1	inactive
Cyp2ab1 (cytochrome P450, family 2, subfamily ab, polypeptide 1)	1	99.4	68.5	inactive
Cyp2ab1 (cytochrome P450, family 2, subfamily ab, polypeptide 1)	2	77.8	69.4	inactive
Cyp2ab1 (cytochrome P450, family 2, subfamily ab, polypeptide 1)	3	67.5	67.9	inactive
Vsig4 (V-set and immunoglobulin domain containing 4)	1	95.6	86.1	inactive
Vsig4 (V-set and immunoglobulin domain containing 4)	2	103	77.9	inactive
Vsig4 (V-set and immunoglobulin domain containing 4)	3	148	133	active
Opa3 (optic atrophy 3)	1	62.7	72.7	inactive
Opa3 (optic atrophy 3)	2	167	65.2	active
Opa3 (optic atrophy 3)	3	104	106	inactive
Rsrp1 (arginine/serine rich protein 1)	1	72.2	73.4	inactive
Rsrp1 (arginine/serine rich protein 1)	2	114	78.4	inactive
Rsrp1 (arginine/serine rich protein 1)	3	127	87.3	active
